Results deposited as PubChem BioAssay AID652259 (Drosophila RNAi Screening Center, 2013).
Screen: 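Knock-downs that push a Wingless-driven reporter up or down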 (primary screen). System: Drosophila clone 8 imaginal disc epithelial cells. Reagent: long dsRNA against Drosophila genes. Treatment: pathway stimulated by co-transfected Wingless expression plasmid. Detection: 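Dual luciferase reads per well after Wingless plasmid stimulation: reporter firefly light and Renilla control light; activity is firefly divided by Renilla, a ratio not deposited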. Direction: firefly reporter light: higher = more Wg reporter light, before normalisation; Renilla control light: higher = more transfected or surviving cells. Call rule: 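a knock-down is a candidate when at least two out of four statistical tests show it departing from its plate mean; one test alone signals a weak candidate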. Meaning of the calls: active = candidate regulator (raises or lowers reporter); inactive = not a candidate.
In all, the deposit lists about 22,000 reagents; below is a random part of those that have a named target and a result. Over the whole deposit, 233 (1.1%) were called active. 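Light values are raw, unnormalised plate reads; the ratio scores behind the reporter calls were not deposited.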 Entries without a mark were called inactive. Names joined by + are all predicted targets of the reagent. No sequences are given here. Not given: the amount of reagent, the time to read-out, the dose of the treatment.

predicted target | amplicon | firefly reporter light, replicate 1 | firefly reporter light, replicate 2 | Renilla control light, replicate 1 | Renilla control light, replicate 2
Osi9 (Osiris 9) | DRSC12278 | 4681 | – | 983 | –
Gr21a (Gustatory receptor 21a) | DRSC00366 | 1829 | 5018 | 1226 | 2890
Dhc36C (Dynein heavy chain at 36C) | DRSC03315 | 2020 | 7945 | 1328 | 3712
OtopLb (Otopetrin-like b) | DRSC00594 | 10875 | – | 2843 | –
CG17698 | DRSC11907 | 11746 | – | 5692 | –
Fak (Focal adhesion kinase) | DRSC07426 | 6208 | – | 2144 | –
bbg (big bang) | DRSC11077 | 9728 | – | 4288 | –
bbg (big bang) | DRSC11079 | 6411 | – | 2193 | –
CG8543 | DRSC10990 | 2476 | 10425 | 2083 | 4789
CG8543 | DRSC22809 | 3.65e5 | 4.24e5 | 1.90e5 | 2.73e5
CG3625 | DRSC00008 | 23433 | – | 14417 | –
CG3625 | DRSC00621 | 8257 | – | 3588 | –
ENGase (Endo-beta-N-acetylglucosaminidase) | DRSC19952 | 2746 | – | 1223 | –
ENGase (Endo-beta-N-acetylglucosaminidase) | DRSC19953 | 13425 | – | 6912 | –
CG11836 | DRSC14396 | 1723 | 5320 | 1095 | 1639
Vps50 (Vacuolar protein sorting 50) | DRSC06910 | 14116 | – | 3872 | –
Pomp | DRSC03201 | 9808 | – | 3079 | –
Letm1 | DRSC04476 | 6887 | – | 1597 | –
Sec24CD (Secretory 24CD) | DRSC00300 | 10632 | – | 2859 | –
TwdlB (TweedleB) | DRSC16050 | 8675 | – | 3320 | –
CG30471 | DRSC07096 | 13898 | – | 4054 | –
CG8441 | DRSC07180 | 8392 | – | 1657 | –
CG15739 | DRSC19705 | 19245 | – | 10916 | –
CG10194 | DRSC02025 | 12348 | – | 4121 | –
gek (genghis khan) | DRSC04688 | 9756 | – | 3211 | –
Obp8a (Odorant-binding protein 8a) | DRSC17868 | 19328 | – | 6378 | –
CG14314 | DRSC14793 | 10220 | – | 1232 | –
CG42307 + mus312 | DRSC11008 | 2716 | 10792 | 1308 | 4731
CG31677 | DRSC22023 | 3.75e5 | 3.86e5 | 1.51e5 | 1.97e5
EMC8-9 (ER membrane protein complex subunit 8/9) | DRSC04380 | 7345 | – | 1349 | –
mei-P22 (meiotic P22) | DRSC11366 | 1481 | 7296 | 882 | 2964
TSG101 (Tumor susceptibility gene 101) | DRSC11098 | 14330 | – | 3818 | –
vnd (ventral nervous system defective) | DRSC17360 | 5112 | – | 2299 | –
vnd (ventral nervous system defective) | DRSC18849 | 21607 | – | 17477 | –
vnd (ventral nervous system defective) | DRSC22487 | 7.55e5 | 7.25e5 | 3.71e5 | 3.24e5
CG31933 | DRSC00457 | 3286 | 11216 | 1175 | 3528
MCU (Mitochondrial calcium uniporter) | DRSC10339 | 1405 | 8343 | 1088 | 3517
CG13203 | DRSC06327 | 8468 | – | 2765 | –
CG33259 | DRSC10854 | 5372 | – | 2902 | –
wun (wunen) | DRSC07719 | 11217 | – | 2851 | –
CG17010 | DRSC02559 | 13975 | – | 3772 | –
Nepl11 (Neprilysin-like 11) | DRSC12333 | 8362 | – | 3451 | –
CG6788 | DRSC20007 | 22032 | – | 9154 | –
lectin-33A | DRSC02529 | 2557 | 6154 | 849 | 3696
lectin-33A | DRSC22116 | 5.69e5 | 5.79e5 | 2.86e5 | 3.41e5
CG15745 (retired record) | DRSC19711 | 15046 | – | 8713 | –
Nha2 + asRNA:CR43454 | DRSC13594 | 3076 | – | 1570 | –
Kap-alpha1 (karyopherin alpha1) | DRSC11356 | 24018 | – | 5127 | –

Part of the list above, showing only “Renilla control light, replicate 1”.
TwdlB (TweedleB) [DRSC16050]: 3320
CG30471 [DRSC07096]: 4054
CG8441 [DRSC07180]: 1657
CG15739 [DRSC19705]: 10916
CG10194 [DRSC02025]: 4121
gek (genghis khan) [DRSC04688]: 3211
Obp8a (Odorant-binding protein 8a) [DRSC17868]: 6378
CG14314 [DRSC14793]: 1232
CG42307 + mus312 [DRSC11008]: 1308
CG31677 [DRSC22023]: 1.51e5
EMC8-9 (ER membrane protein complex subunit 8/9) [DRSC04380]: 1349
mei-P22 (meiotic P22) [DRSC11366]: 882
TSG101 (Tumor susceptibility gene 101) [DRSC11098]: 3818
vnd (ventral nervous system defective) [DRSC17360]: 2299

Continued.
predicted target | amplicon | firefly reporter light, replicate 1 | firefly reporter light, replicate 2 | Renilla control light, replicate 1 | Renilla control light, replicate 2
Arv1 (ACAT-related protein required for viability 1) | DRSC11491 | 3917 | – | 2032 | –
CG3987 | DRSC15531 | 6418 | – | 2739 | –
Pvf2 (PDGF- and VEGF-related factor 2) | DRSC00968 | 2709 | – | 976 | –
Pvf2 (PDGF- and VEGF-related factor 2) | DRSC02283 | 4713 | 8400 | 870 | 3515
hop (hopscotch) | DRSC20340 | 19285 | – | 8779 | –
CG3704 | DRSC18174 | 26420 | – | 18268 | –
CG3704 | DRSC18645 | 26150 | – | 20397 | –
CG4049 | DRSC04443 | 3072 | 5209 | 573 | 2180
CG13029 | DRSC09909 | 10896 | – | 4474 | –
scpr-A + scpr-C + scpr-B | DRSC15715 | 20018 | – | 5222 | –
CoRest | DRSC19881 | 3286 | 5796 | 1548 | 1885
CoRest | DRSC21626 | 6.63e5 | 6.65e5 | 3.49e5 | 2.54e5
CoRest | DRSC22305 | 2.86e5 | 2.83e5 | 1.26e5 | 1.34e5
CG7755 | DRSC07040 | 13909 | – | 5108 | –
Mec2 | DRSC20054 | 1484 | 5061 | 720 | 2458
CG42541 | DRSC17973 | 20352 | – | 7218 | –
CG42541 | DRSC18119 | 8909 | – | 1764 | –
CG42541 | DRSC18120 | 16048 | – | 8044 | –
CG4701 | DRSC01952 | 1296 | 6041 | 706 | 2481
fat-spondin | DRSC07617 | 12496 | – | 3408 | –
CG5910 | DRSC11786 | 9008 | – | 4355 | –
Cndp2 (Cytosolic non-specific dipeptidase 2) | DRSC04873 | 1954 | 2921 | 528 | 1449
CG1582 | DRSC19732 | 1869 | 6619 | 793 | 2812
garz (gartenzwerg) | DRSC07193 | 5227 | – | 2055 | –
CG15922 | DRSC15128 | 21628 | – | 5399 | –
Megf8 (Multiple EGF like domains 8) | DRSC03058 | 9768 | – | 4152 | –
Cyp6g2 (Cytochrome P450 6g2) | DRSC07387 | 6475 | – | 2484 | –
CG31815 | DRSC01548 | 16321 | – | 7762 | –
CG9411 | DRSC20184 | 4076 | 15075 | 1191 | 3191
shi (shibire) | DRSC20373 | 2744 | 12678 | 571 | 1584
Pgant5 (Polypeptide N-Acetylgalactosaminyltransferase 5) | DRSC03149 | 8352 | – | 2976 | –
Syx1A (Syntaxin 1A) | DRSC15359 | 15965 | – | 14032 | –
Syx1A (Syntaxin 1A) | DRSC21554 | 3.89e5 | 3.19e5 | 1.62e5 | 1.32e5
Sld5 | DRSC14892 | 20976 | – | 17109 | –
opm (opossum) | DRSC20141 | 4182 | 10579 | 1366 | 5121
opm (opossum) | DRSC22135 | 4.38e5 | 5.65e5 | 1.79e5 | 2.24e5
Esyt2 (Extended synaptotagmin-like protein 2) | DRSC16082 | 2390 | 4171 | 1191 | 1292
Pdk1 (Phosphoinositide-dependent kinase 1) | DRSC08682 | 5376 | – | 1721 | –
Lrp4 (LDL receptor related protein 4) | DRSC20118 | 1976 | 8770 | 564 | 1702
mRpS14 (mitochondrial ribosomal protein S14) | DRSC19444 | 20497 | – | 9772 | –
Rpt4 (Regulatory particle triple-A ATPase 4) | DRSC18713 | 13814 | – | 6373 | –
sno (strawberry notch) | DRSC20378 | 3990 | 10531 | 1080 | 2387
CG3568 | DRSC18312 | 18899 | – | 9962 | –
CG3916 | DRSC15520 | 14832 | – | 4074 | –
Tao | DRSC19573 | 5521 | 10064 | 1399 | 2892
Tao | DRSC19574 | 20939 | – | 11624 | –
Tao | DRSC22639 | 8.62e5 | 6.25e5 | 3.94e5 | 296
